Patent EP4778539A1

B1: humanized antibody complex #9 (antibody, human IgG1, V domains shown)
VH: AVTLDESGGGLQTPGGALSLVCKASGFTFSGYDMLWVRQAPGKGLEWVAGIGSTGGGTDYGAAVKGRATISRDNGQSTVRLQLNNLRAEDTATYYCAKVAGGCNSGYCRDSPGSIDAWGHGTEVIVS
VL: AVTQQPASVSANPGETVKITCSGGGSRNYYGWYQQKSPGSVPVTVIYYDDQRPSNIPSRFSGALSGSTSTLTITGVQADDEAVYFCGSADSNTYEGSFGAGTTLTVL
B2: humanized antibody complex #13 (antibody, human IgG1, V domains shown)
VH: GAELVRSGASVKMSCKASGYSFTDYNMYWVKQTPGQGLEWIGYIYPGNGGTNYNQKFKGKATLTADTSSSTAYMQISSLTSEDSAVYFCARDYDDGGYAMDYWGQGTTVTVSS
VL: DIQMTQSPASLSASVGETVTITCRASGNIHNYLTWYQQKQGKSPQLLVYNAKTLADGVPSRFSGSGSGTQYSLKINRLQPEDFGSYYCQHFWNIPWTFGGGTKLNSR
B3: humanized antibody complex #14 (antibody, human IgG1, V domains shown)
VH: DAELVKPGASVKISCKASGYTFTDHSIHWVQQKPEQGLEWIGYISPGNGNIKYNEKFKGKATLTADKSSSTAYMQLNSLTSEDSAVYFCKRSLGRGGPYYFDYWGQGTTVTVSS
VL: DIVLTQAAPSLPVTPGESVSISCRSSKSLLHSNGNTYLYWFLQRPGQSPQLLIYRMSNLASGVPDRFSGSGSGTAFTLRISRVEAEDVGVYYCMQHREYPVTFGSGPN
B4: humanized antibody complex #30 (antibody, human IgG1, V domains shown)
VH: GPDLVKPGASVKISCKASGYSFTAYYMHWVKQSHGKSLEWIGRVNPNNGGTTYNQKFKGKAILTVDKSSSTAYMELRSLTFEDSAVYYCARRIYYGYFDYWGQGTTVTVSS
VL: AFFAVSLGQRATISCKASQSVDYDGDSYMNWYQQKPGQPPKLLIYVASNLESGVPARFSGSGSGTDFTLNIHPVEEEDAATYYCQQSNEDPYTFGGGTKLEIKQ
B5: Fab complex #9 (Fab, V domains shown)
VH: B1 VH
VL: B1 VL
B6: Fab complex #13 (Fab, V domains shown)
VH: B2 VH
VL: B2 VL
B7: Fab complex #14 (Fab, V domains shown)
VH: B3 VH
VL: B3 VL
B8: humanized antibody complex #36 (antibody, human IgG1, V domains shown)
VH: EVQLVESGGGLVQPGGSLRLSCAASGFSLSSHSLGWVRQAPGKGLEWIGDIRSGGSAYYANWAKGRFTISRDNSKNTLYLQMNSLRAEDTAVYYCTRTNGPSDLTNRLDLWGQGTLVTVSS
VL: QVLTQSPSSLSASVGDRVTINCQASQSLYNNENLAWFQQKPGKVPKRLIYGASTLASGVSSRFSGSGSGTEFTLTISSLQCEDFAIYYCLGEFSCGSADCFAFGGGTKVEIK
B9: humanized antibody complex #37 (antibody, human IgG1, V domains shown)
VH: B8 VH with Y94F
VL: B8 VL
B10: Fab complex #30 (Fab, V domains shown)
VH: B4 VH
VL: B4 VL
B11: Fab complex #36 (Fab, V domains shown)
VH: B8 VH
VL: B8 VL
B12: Fab complex #37 (Fab, V domains shown)
VH: B8 VH with Y94F
VL: B8 VL
B13: Fab complex #38 (Fab, V domains shown)
VH: B8 VH
VL: EQVLTQSPSSLSASVGDRVTINCQASQSLYNNENLAWFQQKPGKVPKRLIYGASTLASGVSSRFSGSGSGTEFTLTISNLQPEDFAIYYCLGEFSCGSADCFAFGGGTKVEIK
B14: Fab complex #39 (Fab, V domains shown)
VH: B8 VH with Y94F
VL: B13 VL with Q2I, I87T
B15: humanized antibody complex #38 (antibody, human IgG1, V domains shown)
VH: B8 VH
VL: B13 VL
B16: Fab complex #40 (Fab, V domains shown)
VH: B8 VH
VL: B13 VL with Q2I, I87T
B17: Fab complex #41 (Fab, V domains shown)
VH: B8 VH with Y94F
VL: B13 VL
B18: Fab complex #42 (Fab, V domains shown)
VH: B1 VH
VL: B1 VL
B19: Fab complex #46 (Fab, V domains shown)
VH: B2 VH
VL: B2 VL
B20: Fab complex #47 (Fab, V domains shown)
VH: B3 VH
VL: B3 VL
B21: humanized antibody complex #39 (antibody, human IgG1, V domains shown)
VH: B8 VH with Y94F
VL: B13 VL with Q2I, I87T
B22: humanized antibody complex #40 (antibody, human IgG1, V domains shown)
VH: B8 VH
VL: B13 VL with Q2I, I87T
B23: Fab complex #63 (Fab, V domains shown)
VH: B4 VH
VL: B4 VL
B24: Fab complex #69 (Fab, V domains shown)
VH: B8 VH
VL: B8 VL
B25: humanized antibody complex #41 (antibody, human IgG1, V domains shown)
VH: B8 VH with Y94F
VL: B13 VL
B26: Fab complex #70 (Fab, V domains shown)
VH: B8 VH with Y94F
VL: B8 VL
B27: Fab complex #71 (Fab, V domains shown)
VH: B8 VH
VL: B13 VL
B28: Fab complex #72 (Fab, V domains shown)
VH: B8 VH with Y94F
VL: B13 VL with Q2I, I87T

Biological target: CAPRIN-1 protein
Experiment: ELISA

binding, binds:
B1, B2, B3, B4, B5, B6, B7, B8, B9, B10, B11, B12, B13, B14, B15, B16, B17, B18, B19, B20, B21, B22, B23, B24, B25, B26, B27, B28

Where a chain is given by its changes, count along the chain named. Results are given in words; binding and its absence hold for the method and conditions named. A result given as binding can be weak or reduced; the word gives no strength.
